# Some of the results follow.
# Protein sequences, listed by entry. Tags and fused reporters are not part of them. Lines headed by an entry give the natural chain unless they say otherwise; changes in a name come on top.
# UniProt Q01780: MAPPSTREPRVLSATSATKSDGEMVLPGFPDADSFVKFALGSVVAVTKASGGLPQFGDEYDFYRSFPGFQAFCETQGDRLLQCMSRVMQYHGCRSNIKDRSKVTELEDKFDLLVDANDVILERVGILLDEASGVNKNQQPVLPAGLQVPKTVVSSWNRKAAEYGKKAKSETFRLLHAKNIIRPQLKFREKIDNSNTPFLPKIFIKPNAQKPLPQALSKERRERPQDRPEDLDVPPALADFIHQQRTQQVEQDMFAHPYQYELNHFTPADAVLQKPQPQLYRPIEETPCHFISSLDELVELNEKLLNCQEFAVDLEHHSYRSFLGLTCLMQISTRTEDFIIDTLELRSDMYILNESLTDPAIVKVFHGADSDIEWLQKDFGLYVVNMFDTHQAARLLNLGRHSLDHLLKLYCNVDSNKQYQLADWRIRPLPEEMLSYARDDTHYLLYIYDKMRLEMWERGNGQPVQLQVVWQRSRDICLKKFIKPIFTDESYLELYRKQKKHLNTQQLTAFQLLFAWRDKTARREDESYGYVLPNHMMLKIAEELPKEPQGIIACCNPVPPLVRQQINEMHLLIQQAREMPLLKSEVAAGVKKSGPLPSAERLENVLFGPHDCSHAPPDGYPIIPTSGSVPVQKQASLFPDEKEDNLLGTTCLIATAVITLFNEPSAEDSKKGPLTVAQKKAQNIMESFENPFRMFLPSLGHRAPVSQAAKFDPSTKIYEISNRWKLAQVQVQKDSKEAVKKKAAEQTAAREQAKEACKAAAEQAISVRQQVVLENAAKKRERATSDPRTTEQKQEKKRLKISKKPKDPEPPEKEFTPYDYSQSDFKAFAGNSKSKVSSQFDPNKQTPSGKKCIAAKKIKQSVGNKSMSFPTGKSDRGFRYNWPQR
# UniProt Q13158: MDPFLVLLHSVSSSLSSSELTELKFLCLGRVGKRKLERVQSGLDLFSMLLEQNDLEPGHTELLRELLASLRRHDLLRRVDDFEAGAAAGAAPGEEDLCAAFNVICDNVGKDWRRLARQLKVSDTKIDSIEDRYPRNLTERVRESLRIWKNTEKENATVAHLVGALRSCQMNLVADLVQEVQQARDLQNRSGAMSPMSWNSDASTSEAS
# UniProt Q9NRY5: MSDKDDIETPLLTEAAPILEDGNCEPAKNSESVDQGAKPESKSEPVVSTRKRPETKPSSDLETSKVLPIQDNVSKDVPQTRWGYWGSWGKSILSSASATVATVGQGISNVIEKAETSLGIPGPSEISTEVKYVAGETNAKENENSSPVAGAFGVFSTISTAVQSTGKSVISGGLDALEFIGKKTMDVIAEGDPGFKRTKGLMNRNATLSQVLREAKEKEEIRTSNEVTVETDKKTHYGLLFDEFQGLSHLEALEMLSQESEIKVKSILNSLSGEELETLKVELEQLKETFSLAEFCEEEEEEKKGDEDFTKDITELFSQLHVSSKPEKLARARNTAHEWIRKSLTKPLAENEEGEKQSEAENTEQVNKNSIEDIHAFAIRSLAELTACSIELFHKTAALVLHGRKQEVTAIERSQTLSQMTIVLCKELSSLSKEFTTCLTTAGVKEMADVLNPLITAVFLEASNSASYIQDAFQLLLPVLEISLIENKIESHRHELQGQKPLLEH
# UniProt Q9Y5Q0: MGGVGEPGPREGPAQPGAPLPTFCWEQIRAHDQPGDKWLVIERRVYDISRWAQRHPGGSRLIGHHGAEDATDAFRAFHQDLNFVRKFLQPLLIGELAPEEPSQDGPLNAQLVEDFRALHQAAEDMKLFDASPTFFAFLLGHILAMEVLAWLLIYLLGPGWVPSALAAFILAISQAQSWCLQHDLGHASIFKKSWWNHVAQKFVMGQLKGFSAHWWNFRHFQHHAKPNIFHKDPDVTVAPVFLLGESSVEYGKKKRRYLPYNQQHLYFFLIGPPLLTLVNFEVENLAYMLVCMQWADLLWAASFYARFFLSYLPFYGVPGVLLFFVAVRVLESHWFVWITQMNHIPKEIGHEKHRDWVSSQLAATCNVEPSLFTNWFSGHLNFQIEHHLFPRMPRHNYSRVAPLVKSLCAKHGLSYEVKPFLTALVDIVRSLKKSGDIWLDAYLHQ
# UniProt Q96B26, whole entry, looked up: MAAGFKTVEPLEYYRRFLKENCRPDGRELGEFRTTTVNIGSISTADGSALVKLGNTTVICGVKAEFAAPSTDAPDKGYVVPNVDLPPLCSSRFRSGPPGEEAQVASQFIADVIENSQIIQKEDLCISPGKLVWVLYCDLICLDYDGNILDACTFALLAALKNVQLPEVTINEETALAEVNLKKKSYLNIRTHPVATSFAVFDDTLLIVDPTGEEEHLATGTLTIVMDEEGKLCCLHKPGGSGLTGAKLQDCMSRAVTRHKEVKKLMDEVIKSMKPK
# UniProt Q96KP1: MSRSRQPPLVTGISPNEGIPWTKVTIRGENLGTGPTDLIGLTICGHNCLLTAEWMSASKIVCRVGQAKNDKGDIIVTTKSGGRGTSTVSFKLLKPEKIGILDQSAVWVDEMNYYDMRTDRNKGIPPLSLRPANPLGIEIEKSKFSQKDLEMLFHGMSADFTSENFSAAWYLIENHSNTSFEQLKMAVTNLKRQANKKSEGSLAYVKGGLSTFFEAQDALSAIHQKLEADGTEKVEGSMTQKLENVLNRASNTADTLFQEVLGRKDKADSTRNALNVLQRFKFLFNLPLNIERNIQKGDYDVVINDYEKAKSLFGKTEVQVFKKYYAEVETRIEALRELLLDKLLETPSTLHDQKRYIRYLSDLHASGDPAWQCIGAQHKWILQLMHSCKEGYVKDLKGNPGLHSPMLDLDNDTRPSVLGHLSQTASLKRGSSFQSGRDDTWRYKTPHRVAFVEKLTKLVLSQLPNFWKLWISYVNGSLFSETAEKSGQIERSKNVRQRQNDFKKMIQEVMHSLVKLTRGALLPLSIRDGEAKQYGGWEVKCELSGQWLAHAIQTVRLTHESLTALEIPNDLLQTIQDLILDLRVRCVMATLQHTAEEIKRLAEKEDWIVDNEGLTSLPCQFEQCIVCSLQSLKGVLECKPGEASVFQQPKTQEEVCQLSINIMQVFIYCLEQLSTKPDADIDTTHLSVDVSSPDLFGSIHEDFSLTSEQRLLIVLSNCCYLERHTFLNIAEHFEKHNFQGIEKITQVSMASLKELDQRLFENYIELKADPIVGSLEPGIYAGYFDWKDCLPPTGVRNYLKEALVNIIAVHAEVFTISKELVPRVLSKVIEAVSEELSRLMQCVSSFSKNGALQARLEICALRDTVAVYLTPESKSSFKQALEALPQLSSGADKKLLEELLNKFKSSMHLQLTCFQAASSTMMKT
# UniProt P11474: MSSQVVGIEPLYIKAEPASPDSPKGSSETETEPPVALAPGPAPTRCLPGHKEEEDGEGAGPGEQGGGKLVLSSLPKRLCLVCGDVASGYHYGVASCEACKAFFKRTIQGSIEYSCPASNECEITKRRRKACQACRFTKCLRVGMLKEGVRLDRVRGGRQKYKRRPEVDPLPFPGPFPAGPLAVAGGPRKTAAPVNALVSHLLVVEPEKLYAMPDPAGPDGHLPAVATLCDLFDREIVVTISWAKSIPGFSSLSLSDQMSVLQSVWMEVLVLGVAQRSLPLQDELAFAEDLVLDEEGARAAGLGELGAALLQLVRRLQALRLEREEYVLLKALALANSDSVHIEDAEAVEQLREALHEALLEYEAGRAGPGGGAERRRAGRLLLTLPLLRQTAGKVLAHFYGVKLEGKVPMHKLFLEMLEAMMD
# UniProt Q7L775: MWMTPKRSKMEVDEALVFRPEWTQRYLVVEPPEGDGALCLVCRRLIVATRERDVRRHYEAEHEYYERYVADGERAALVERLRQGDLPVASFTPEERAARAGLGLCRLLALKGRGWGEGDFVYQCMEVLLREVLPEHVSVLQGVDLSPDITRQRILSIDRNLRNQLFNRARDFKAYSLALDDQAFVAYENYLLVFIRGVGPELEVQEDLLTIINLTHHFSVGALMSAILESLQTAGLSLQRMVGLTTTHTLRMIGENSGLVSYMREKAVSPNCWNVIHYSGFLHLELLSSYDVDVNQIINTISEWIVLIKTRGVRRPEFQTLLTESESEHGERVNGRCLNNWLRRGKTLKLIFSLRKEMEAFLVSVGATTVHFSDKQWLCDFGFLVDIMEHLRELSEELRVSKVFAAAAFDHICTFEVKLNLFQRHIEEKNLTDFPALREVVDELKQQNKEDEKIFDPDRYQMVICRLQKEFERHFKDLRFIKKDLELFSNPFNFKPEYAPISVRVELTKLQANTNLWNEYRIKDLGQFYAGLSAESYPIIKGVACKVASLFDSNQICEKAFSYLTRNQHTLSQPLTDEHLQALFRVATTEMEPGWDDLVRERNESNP
# UniProt O75063: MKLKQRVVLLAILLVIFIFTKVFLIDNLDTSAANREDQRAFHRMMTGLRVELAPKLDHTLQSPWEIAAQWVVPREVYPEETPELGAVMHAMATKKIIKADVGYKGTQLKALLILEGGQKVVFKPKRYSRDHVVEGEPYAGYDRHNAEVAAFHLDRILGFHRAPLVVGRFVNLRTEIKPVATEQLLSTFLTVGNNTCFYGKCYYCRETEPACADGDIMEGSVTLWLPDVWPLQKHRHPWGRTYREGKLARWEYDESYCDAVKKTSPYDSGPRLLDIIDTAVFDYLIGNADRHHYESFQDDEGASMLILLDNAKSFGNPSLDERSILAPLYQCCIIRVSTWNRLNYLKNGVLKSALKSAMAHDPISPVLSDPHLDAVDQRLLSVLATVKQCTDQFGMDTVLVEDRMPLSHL
# UniProt Q5BKY9: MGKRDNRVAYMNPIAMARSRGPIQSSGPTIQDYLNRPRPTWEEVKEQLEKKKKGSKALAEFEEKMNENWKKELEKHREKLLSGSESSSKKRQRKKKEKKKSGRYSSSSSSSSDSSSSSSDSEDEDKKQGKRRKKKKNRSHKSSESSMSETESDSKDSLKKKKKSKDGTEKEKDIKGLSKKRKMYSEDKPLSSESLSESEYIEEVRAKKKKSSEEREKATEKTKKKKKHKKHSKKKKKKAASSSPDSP
# UniProt Q86UK5: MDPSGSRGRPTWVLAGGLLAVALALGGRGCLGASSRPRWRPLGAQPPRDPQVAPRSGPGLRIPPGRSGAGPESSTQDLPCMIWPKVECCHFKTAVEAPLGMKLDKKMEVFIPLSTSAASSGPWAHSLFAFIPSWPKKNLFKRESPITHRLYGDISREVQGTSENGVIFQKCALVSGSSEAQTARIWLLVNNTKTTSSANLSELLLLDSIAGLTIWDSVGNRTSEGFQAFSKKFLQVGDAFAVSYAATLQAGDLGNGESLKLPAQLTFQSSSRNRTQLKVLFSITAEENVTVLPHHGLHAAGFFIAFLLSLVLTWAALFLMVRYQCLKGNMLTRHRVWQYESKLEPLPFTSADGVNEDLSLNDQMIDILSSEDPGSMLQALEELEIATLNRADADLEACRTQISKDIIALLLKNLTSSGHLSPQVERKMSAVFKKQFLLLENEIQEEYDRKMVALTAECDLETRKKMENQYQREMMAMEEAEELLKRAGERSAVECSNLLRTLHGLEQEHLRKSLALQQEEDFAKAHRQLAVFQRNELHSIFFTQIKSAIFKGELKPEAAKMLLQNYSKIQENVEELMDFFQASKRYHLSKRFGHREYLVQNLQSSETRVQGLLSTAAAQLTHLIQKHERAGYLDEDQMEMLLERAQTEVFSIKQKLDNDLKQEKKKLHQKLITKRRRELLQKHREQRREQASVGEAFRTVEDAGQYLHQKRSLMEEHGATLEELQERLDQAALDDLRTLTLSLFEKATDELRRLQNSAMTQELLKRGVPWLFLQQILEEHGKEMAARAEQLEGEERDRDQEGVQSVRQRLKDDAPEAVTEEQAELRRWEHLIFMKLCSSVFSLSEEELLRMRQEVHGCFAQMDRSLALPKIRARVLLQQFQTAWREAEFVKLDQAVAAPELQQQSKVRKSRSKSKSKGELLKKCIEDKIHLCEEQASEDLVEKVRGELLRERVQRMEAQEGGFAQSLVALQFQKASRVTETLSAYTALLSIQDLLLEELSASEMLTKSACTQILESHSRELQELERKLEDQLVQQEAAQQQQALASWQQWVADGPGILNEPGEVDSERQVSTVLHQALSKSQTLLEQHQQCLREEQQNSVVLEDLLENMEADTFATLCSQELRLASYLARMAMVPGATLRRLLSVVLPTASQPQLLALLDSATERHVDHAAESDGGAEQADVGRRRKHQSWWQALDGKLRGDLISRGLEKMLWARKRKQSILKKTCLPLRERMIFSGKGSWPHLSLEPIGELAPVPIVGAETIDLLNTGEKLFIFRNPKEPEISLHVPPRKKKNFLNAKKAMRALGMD
# UniProt Q9NQT4, whole entry, looked up: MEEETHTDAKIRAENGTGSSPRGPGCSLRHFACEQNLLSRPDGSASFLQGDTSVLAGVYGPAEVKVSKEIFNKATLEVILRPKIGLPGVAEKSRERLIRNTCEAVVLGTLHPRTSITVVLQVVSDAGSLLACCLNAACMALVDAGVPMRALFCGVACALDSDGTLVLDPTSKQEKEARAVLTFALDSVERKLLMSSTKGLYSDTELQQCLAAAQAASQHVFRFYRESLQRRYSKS
# What was measured:
# Assay in all cases: log2 fold change, soluble protein after heating vs DMSO (PISA); higher = thermal stabilisation; K562 cells, 10 uM, 30 min; active = over 0.2 and 3.5 SD of the protein, either way, in both replicates (recomputed)
# [1] = compound: CC1=C(C=C(C=C1)NC(=O)C2=CC(=CC=C2)C(C)(C)C#N)NC3=CC4=C(C=C3)N=CN(C4=O)C
# How it was run: (§1)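 Soluble protein was defined as the supernatant after 21,000xg for 90 min. It came from K562 cells at 2×10^6 cells/mL given 10 μM compound for 30 min, heated in aliquots for 3 min across 48°C-58°C, pooled, and extracted in PBS with 0.5% NP-40 at 4°C, and was quantified by TMTpro 16plex LC-MS/MS with equalised channel sums. Thermal stability against control samples, from duplicates, is reported as log2 fold change.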
# [2] = compound: CC1=C(C=C(C=C1)NC(=O)C2=CC(=CC=C2)N(C)C)NC(=O)C3=CC=C(C=C3)O
# How it was run: as §1
# [3] = compound: CC1=CC=C(C=C1)SC2=C3C=C(SC3=CN=C2)C(=O)N
# How it was run: as §1
# [4] = compound: CC1=NC(=CC=C1)C2=C(N=C(N2)C(C)(C)C)C3=CC4=NC=CN=C4C=C3
# How it was run: as §1
# Nexturastat A = compound: CCCCN(Cc1ccc(C(=O)NO)cc1)C(=O)Nc1ccccc1 [Nexturastat A]
# How it was run: as §1
# vemurafenib = compound: CCCS(=O)(=O)Nc1ccc(F)c(C(=O)c2c[nH]c3ncc(-c4ccc(Cl)cc4)cc23)c1F [vemurafenib]
# How it was run: as §1
# [5] = compound: CCCS(=O)(=O)Nc1ccc(F)c(C(=O)c2c[nH]c3ncc(Cl)cc23)c1F
# How it was run: as §1
# [6] = compound: CCCc1cc(C)[nH]c(=O)c1CNC(=O)c1cc(-c2ccnc(N3CCN(C)CC3)c2)cc2c1cnn2C(C)C
# How it was run: as §1
# givinostat = compound: CCN(CC)Cc1ccc2cc(COC(=O)Nc3ccc(C(=O)NO)cc3)ccc2c1 [givinostat]
# How it was run: as §1
# barasertib = compound: CCN(CCCOc1ccc2c(Nc3cc(CC(=O)Nc4cccc(F)c4)[nH]n3)ncnc2c1)CCOP(=O)(O)O [barasertib]
# How it was run: as §1
Target,log2 fold change [1],log2 fold change [2],log2 fold change [3],log2 fold change [4],log2 fold change (Nexturastat A),log2 fold change (vemurafenib),log2 fold change [5],log2 fold change [6],log2 fold change (givinostat),log2 fold change (barasertib)
EXOSC10 (UniProt Q01780),inactive: -0.537,inactive: 0.061,inactive: -0.07,inactive: -0.123,active: 0.762,inactive: -0.221,inactive: -0.18,inactive: -0.168,inactive: 0.147,inactive: 0.036
ERMP1 (UniProt Q7Z2K6),inactive: -0.035,inactive: 0.01,inactive: 0.018,inactive: -0.025,inactive: -0.012,inactive: -0.008,inactive: -0.032,inactive: -0.004,inactive: -0.019,inactive: -0.021
ERLIN1 (UniProt O75477),inactive: 0.011,inactive: -0.018,inactive: 0.028,inactive: -0.01,inactive: 0.031,inactive: -0.02,inactive: 0.014,inactive: 0.065,inactive: 0.014,inactive: 0.028
EPHX1 (UniProt P07099),inactive: -0.008,inactive: -0.012,inactive: -0.008,inactive: -0.018,inactive: -0.048,inactive: 0.02,inactive: 0.081,inactive: -0.048,inactive: -0.014,inactive: -0.044
ERCC6 (UniProt Q03468),inactive: -0.127,inactive: -0.038,inactive: 0.005,inactive: -0.038,inactive: -0.126,inactive: 0.064,inactive: 0.074,inactive: -0.017,inactive: 0.071,inactive: 0.065
EWSR1 isoform 5 (UniProt Q01844),inactive: -0.021,inactive: 0.012,inactive: -0.054,inactive: 0.021,inactive: 0.083,inactive: 0.005,inactive: 0.019,inactive: -0.014,inactive: -0.024,inactive: -0.047
FADD (UniProt Q13158),inactive: 0.011,inactive: -0.046,inactive: 0.026,inactive: 0.056,inactive: 0.108,inactive: -0.012,inactive: 0.018,inactive: 0.096,inactive: 0.057,inactive: 0.09
ERCC3 (UniProt P19447),inactive: -0.013,inactive: 0.022,inactive: 0.108,inactive: -0.168,inactive: 0.137,inactive: 0.004,inactive: 0.096,inactive: 0.141,inactive: 0.136,inactive: 0.087
EXT2 isoform 3 (UniProt Q93063),inactive: 0.034,inactive: 0,inactive: -0.042,inactive: -0.019,inactive: 0.142,inactive: -0.04,inactive: -0.055,inactive: 0.043,inactive: 0.031,inactive: -0.007
FAM114A2 (UniProt Q9NRY5),inactive: 0.007,inactive: 0.03,inactive: 0.038,inactive: 0.022,inactive: -0.053,inactive: 0.001,inactive: 0.061,inactive: -0.058,inactive: -0.017,inactive: 0.01
FAM136A (UniProt Q96C01),inactive: -0.002,inactive: -0.059,inactive: 0.041,inactive: 0.063,inactive: 0.011,inactive: 0.006,inactive: 0,inactive: -0.041,inactive: 0,inactive: 0.03
FADS3 (UniProt Q9Y5Q0),inactive: 0.031,inactive: -0.002,inactive: -0.012,inactive: 0.031,inactive: -0.096,inactive: 0.01,inactive: 0.026,inactive: -0.069,inactive: -0.108,inactive: 0.042
"FADS1, A0A0A0MR51",inactive: 0.09,inactive: -0.019,inactive: 0.008,inactive: 0.069,inactive: -0.006,inactive: -0.002,inactive: 0.021,inactive: -0.034,active: -0.274,inactive: 0.031
ERP44 (UniProt Q9BS26),inactive: 0.006,inactive: 0.008,inactive: -0.008,inactive: -0.019,inactive: -0.034,inactive: -0.007,inactive: -0.045,inactive: 0.014,inactive: -0.028,inactive: 0.023
ERBIN isoform 8 (UniProt Q96RT1),inactive: 0.147,inactive: 0.033,inactive: -0.029,inactive: 0.018,inactive: 0.071,inactive: -0.012,inactive: -0.01,inactive: 0.066,inactive: -0.021,inactive: -0.002
EXOSC8 (UniProt Q96B26),inactive: -0.03,inactive: 0.009,inactive: -0.018,inactive: -0.01,inactive: 0.006,inactive: -0.014,inactive: -0.026,inactive: -0.038,inactive: -0.054,inactive: -0.044
EXOC2 (UniProt Q96KP1),inactive: -0.03,inactive: -0.017,inactive: 0.051,inactive: 0.027,inactive: 0.058,inactive: 0.041,inactive: 0.062,inactive: 0.037,inactive: 0.177,inactive: 0.056
ESRRA (UniProt P11474),inactive: 0.078,inactive: 0.024,inactive: -0.041,inactive: -0.118,inactive: -0.035,inactive: 0.022,inactive: 0.05,inactive: 0.136,inactive: -0.019,inactive: 0.002
EXTL2 (UniProt Q9UBQ6),inactive: 0.072,inactive: -0.003,inactive: -0.017,inactive: -0.003,inactive: -0.163,inactive: -0.002,inactive: -0.031,inactive: -0.043,inactive: -0.039,inactive: -0.053
FAH isoform 2 (UniProt P16930),inactive: 0.043,inactive: 0.061,inactive: -0.023,inactive: -0.007,inactive: -0.171,inactive: -0.046,inactive: -0.02,inactive: -0.104,inactive: 0.057,inactive: 0.015
F2 (UniProt P00734),inactive: -0.1,inactive: 0.081,inactive: 0.084,inactive: 0.092,inactive: 0.052,inactive: 0.075,inactive: -0.133,inactive: -0.059,inactive: -0.098,inactive: 0.06
EPM2AIP1 (UniProt Q7L775),inactive: -0.024,inactive: 0.015,inactive: -0.025,inactive: -0.011,inactive: 0.016,inactive: 0.03,inactive: 0.003,inactive: -0.033,inactive: -0.029,inactive: 0.039
EPS15 (UniProt P42566),inactive: -0.007,inactive: -0.018,inactive: 0.004,inactive: 0.024,inactive: 0.007,inactive: 0.066,inactive: 0.059,inactive: 0.014,inactive: -0.004,inactive: 0.048
EXOC8 (UniProt Q8IYI6),inactive: 0.035,inactive: -0.085,inactive: 0.037,inactive: 0.016,inactive: -0.087,inactive: 0.048,inactive: 0.01,inactive: -0.091,inactive: 0.028,inactive: 0.048
FAM20B (UniProt O75063),inactive: -0.011,inactive: -0.009,inactive: 0.004,inactive: -0.042,inactive: 0.03,inactive: -0.023,inactive: 0,inactive: -0.014,inactive: 0.035,inactive: 0.02
FAM133B (UniProt Q5BKY9),inactive: -0.023,inactive: 0.03,inactive: -0.011,inactive: 0.039,inactive: 0.056,inactive: -0.044,inactive: -0.016,inactive: -0.072,inactive: -0.033,inactive: -0.08
EVC2 (UniProt Q86UK5),inactive: -0.263,inactive: -0.146,inactive: -0.006,inactive: -0.018,inactive: 0.046,inactive: -0.073,inactive: -0.054,inactive: 0.16,inactive: 0.06,inactive: -0.064
FAH (UniProt P16930),inactive: -0.009,inactive: 0.021,inactive: 0.224,inactive: -0.013,inactive: -0.041,inactive: -0.003,inactive: -0.012,inactive: -0.109,inactive: -0.162,inactive: -0.032
ETNK1 (UniProt Q9HBU6),inactive: 0.241,inactive: -0.054,inactive: 0.022,inactive: 0.02,inactive: -0.177,inactive: 0.006,inactive: 0.172,inactive: -0.076,inactive: 0.042,inactive: 0.005
EXOSC5 (UniProt Q9NQT4),inactive: 0.051,inactive: -0.007,inactive: 0.014,inactive: 0.002,inactive: 0.009,inactive: -0.007,inactive: -0.002,inactive: -0.004,inactive: -0.048,inactive: 0.01

# Part of the list above in a different format:
Target	log2 fold change [1]	log2 fold change [2]	log2 fold change [3]	log2 fold change [4]	log2 fold change (Nexturastat A)	log2 fold change (vemurafenib)	log2 fold change [5]	log2 fold change [6]	log2 fold change (givinostat)	log2 fold change (barasertib)
ERCC6 (UniProt Q03468)	inactive: -0.127	inactive: -0.038	inactive: 0.005	inactive: -0.038	inactive: -0.126	inactive: 0.064	inactive: 0.074	inactive: -0.017	inactive: 0.071	inactive: 0.065
EXOC8 (UniProt Q8IYI6)	inactive: 0.035	inactive: -0.085	inactive: 0.037	inactive: 0.016	inactive: -0.087	inactive: 0.048	inactive: 0.01	inactive: -0.091	inactive: 0.028	inactive: 0.048

# From the supplement of paper PMC10849652
